Measurements taken from doi:10.1101/2023.09.07.556688 (bioRxiv, 2023).
No constants are given. Whether binding was seen depends on the method and setting. Some results given as binding are weak or reduced against the parent protein; the word gives no strength.

Tests used:
[1] = target: truncated atP5CS2 protein consisting of residues 1-290 (atP5CS2-GK) (Arabidopsis thaliana) (UniProt P54888); assay: negative-stain EM
[2] = target: atP5CS2-F80A mutant (Arabidopsis thaliana) (UniProt P54888); assay: negative-stain EM

B1: truncated atP5CS2 protein consisting of residues 1-290 (atP5CS2-GK) (domain or fragment, Arabidopsis thaliana, UniProt P54888 1-290, looked up)
chain: MTEIDRSRAFAKDVKRIVVKVGTAVVTGKGGRLALGRLGAICEQLAELNSDGFEVILVSSGAVGLGRQRLRYRQLVNSSFADLQKPQMELDGKACAGVGQSSLMAYYETMFDQLDVTVAQMLVTDSSFRDKDFRKQLSETVKAMLRMRVIPVFNENDAISTRRAPYKDSTGIFWDNDSLAALLSLELKADLLILLSDVEGLYTGPPSDSTSKLIHTFIKEKHQDEITFGEKSKLGRGGMTAKVKAAVNAAYGGVPVIITSGYAAENISKVLRGLRVGTLFHQDAHLWAPV
**Q.** How did the binding [1] turn out when B1 was run?
**A.** The binding was “binds weakly”.

B2: atP5CS2-F80A mutant (enzyme, UniProt P54888 1-726)
chain: MTEIDRSRAFAKDVKRIVVKVGTAVVTGKGGRLALGRLGAICEQLAELNSDGFEVILVSSGAVGLGRQRLRYRQLVNSSAADLQKPQMELDGKACAGVGQSSLMAYYETMFDQLDVTVAQMLVTDSSFRDKDFRKQLSETVKAMLRMRVIPVFNENDAISTRRAPYKDSTGIFWDNDSLAALLSLELKADLLILLSDVEGLYTGPPSDSTSKLIHTFIKEKHQDEITFGEKSKLGRGGMTAKVKAAVNAAYGGVPVIITSGYAAENISKVLRGLRVGTLFHQDAHLWAPVVDTTSRDMAVAARESSRKLQALSSEDRKQILHDIANALEVNEKTIKAENDLDVAAAQEAGYEESLVARLVMKPGKISSLAASVRQLAEMEDPIGRVLKKTQVADDLILEKTSSPIGVLLIVFESRPDALVQIASLAIRSGNGLLLKGGKEARRSNAILHKVITDAIPETVGGKLIGLVTSREEIPDLLKLDDVIDLVIPRGSNKLVSQIKNSTKIPVLGHADGICHVYVDKSGKLDMAKRIVSDAKLDYPAACNAMETLLVHKDLEQNGFLDDLIYVLQTKGVTLYGGPRASAKLNIPETKSFHHEYSSKACTVEIVEDVYGAIDHIHQHGSAHTDCIVTEDSEVAEIFLRQVDSAAVFHNASTRFSDGFRFGLGAEVGISTSRIHARGPVGVEGLLTTRWIMRGKGQVVDGDNGIVYTHKDLPVLQRTEAVENGI
**Q.** How did the binding [2] turn out when B2 was run?
**A.** The binding was “no binding”.
